Paper PMC3396653
These are yes or no findings as the source states them, for the method shown. Binding seen in cells or lysates may run through a third protein. Some entries that bind do so weakly or less than the wild type.

Chains of the proteins cited; added tags and fusions are not shown. Residues count along the entry.
UniProt P35918, residues 20-1345: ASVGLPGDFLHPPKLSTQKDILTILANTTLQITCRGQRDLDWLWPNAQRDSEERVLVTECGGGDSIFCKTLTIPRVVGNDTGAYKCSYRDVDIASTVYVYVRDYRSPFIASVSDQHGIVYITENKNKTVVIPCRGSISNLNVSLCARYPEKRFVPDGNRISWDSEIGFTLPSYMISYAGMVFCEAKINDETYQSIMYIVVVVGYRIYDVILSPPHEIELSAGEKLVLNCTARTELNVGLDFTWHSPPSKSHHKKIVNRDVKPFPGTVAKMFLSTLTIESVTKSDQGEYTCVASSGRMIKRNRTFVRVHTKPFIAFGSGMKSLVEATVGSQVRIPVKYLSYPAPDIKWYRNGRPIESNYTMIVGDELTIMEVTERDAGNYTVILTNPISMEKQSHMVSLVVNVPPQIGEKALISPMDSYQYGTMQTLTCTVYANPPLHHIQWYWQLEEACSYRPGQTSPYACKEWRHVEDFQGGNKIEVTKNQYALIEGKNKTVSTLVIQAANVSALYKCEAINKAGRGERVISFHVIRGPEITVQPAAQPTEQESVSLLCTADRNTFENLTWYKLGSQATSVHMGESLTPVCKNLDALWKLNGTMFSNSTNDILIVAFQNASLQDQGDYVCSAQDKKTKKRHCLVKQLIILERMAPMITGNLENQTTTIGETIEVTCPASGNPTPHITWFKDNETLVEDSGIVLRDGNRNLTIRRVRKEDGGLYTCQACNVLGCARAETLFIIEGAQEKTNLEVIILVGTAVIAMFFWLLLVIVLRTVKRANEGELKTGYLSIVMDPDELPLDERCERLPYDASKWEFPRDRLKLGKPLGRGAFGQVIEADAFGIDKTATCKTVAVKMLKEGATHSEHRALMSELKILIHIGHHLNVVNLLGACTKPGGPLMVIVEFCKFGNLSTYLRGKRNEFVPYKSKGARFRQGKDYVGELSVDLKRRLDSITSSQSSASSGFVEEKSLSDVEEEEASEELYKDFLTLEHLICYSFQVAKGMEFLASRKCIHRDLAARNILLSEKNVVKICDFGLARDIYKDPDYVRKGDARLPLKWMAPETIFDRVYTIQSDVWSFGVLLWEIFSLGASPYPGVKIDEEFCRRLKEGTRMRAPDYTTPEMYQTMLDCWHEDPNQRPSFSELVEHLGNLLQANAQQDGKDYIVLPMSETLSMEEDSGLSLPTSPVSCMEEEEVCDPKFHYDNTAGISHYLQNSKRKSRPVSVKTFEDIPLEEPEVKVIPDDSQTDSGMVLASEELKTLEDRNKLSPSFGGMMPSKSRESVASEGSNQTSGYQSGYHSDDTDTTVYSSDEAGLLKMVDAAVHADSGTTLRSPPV

B1: beta3 integrin (receptor, UniProt O54890 26-787)
chain: ESNICTTRGVNSCQQCLAVSPVCAWCSDETLSQGSPRCNLKENLLKDNCAPESIEFPVSEAQILEARPLSSKGSGSSAQITQVSPQRIALRLRPDDSKIFSLQVRQVEDYPVDIYYLMDLSFSMKDDLSSIQTLGTKLASQMRKLTSNLRIGFGAFVDKPVSPYMYISPPQAIKNPCYNMKNACLPMFGYKHVLTLTDQVSRFNEEVKKQSVSRNRDAPEGGFDAIMQATVCDEKIGWRNDASHLLVFTTDAKTHIALDGRLAGIVLPNDGHCHIGTDNHYSASTTMDYPSLGLMTEKLSQKNINLIFAVTENVVSLYQNYSELIPGTTVGVLSDDSSNVLQLIVDAYGKIRSKVELEVRDLPEELSLSFNATCLNNEVIPGLKSCVGLKIGDTVSFSIEAKVRGCPQEKEQSFTIKPVGFKDSLTVQVTFDCDCACQAFAQPSSPRCNNGNGTFECGVCRCDQGWLGSMCECSEEDYRPSQQEECSPKEGQPICSQRGECLCGQCVCHSSDFGKITGKYCECDDFSCVRYKGEMCSGHGQCNCGDCVCDSDWTGYYCNCTTRTDTCMSTNGLLCSGRGNCECGSCVCVQPGSYGDTCEKCPTCPDACSFKKECVECKKFNRGTLHEENTCSRYCRDDIEQVKELTDTGKNAVNCTYKNEDDCVVRFQYYEDTSGRAVLYVVEEPECPKGPDILVVLLSVMGAILLIGLATLLIWKLLITIHDRKEFAKFEEERARAKWDTANNPLYKEATSTFTNITYRGT

Experiments:
[1] = target: T1, beta3 integrin (mouse (endogenous in kidney and VEGF^KD podocytes)) (UniProt O54890); assay: co-IP; VEGF^KD podocyte lysates (1 mg), cells with or without doxycycline (1 µg/ml) for 48 hours; IP buffer (1% Triton X-100, 1% Nonidet P-40, 0.5% Na deoxycholate, 150 mM NaCl, 10 mM Tris pH 7.5, 1 mM EDTA, 50 mM NaF); IP with VEGFR2 or beta3 integrin antibody overnight at 4°C, protein A-agarose; rabbit serum as negative control; western blot
T1 sequence: B1 chain

[2] = target: T1, beta3 integrin (mouse (endogenous in kidney and VEGF^KD podocytes)); assay: co-IP; pooled mouse whole kidney lysates (1.5 mg) in IP buffer (1% Triton X-100, 1% Nonidet P-40, 0.5% Na deoxycholate, 150 mM NaCl, 10 mM Tris pH 7.5, 1 mM EDTA, 50 mM NaF); IP with VEGFR2 or beta3 integrin antibody overnight at 4°C, protein A-agarose; rabbit serum as negative control; western …
[3] = target: VEGF receptor 2 (mouse (endogenous in kidney and VEGF^KD podocytes)) (UniProt P35918); assay: co-IP; VEGF^KD podocyte lysates (1 mg), cells with or without doxycycline (1 µg/ml) for 48 hours; IP buffer (1% Triton X-100, 1% Nonidet P-40, 0.5% Na deoxycholate, 150 mM NaCl, 10 mM Tris pH 7.5, 1 mM EDTA, 50 mM NaF); IP with VEGFR2 or beta3 integrin antibody overnight at 4°C, protein A-agarose; rabbit serum as negative control; western blot
[4] = target: VEGF receptor 2 (mouse (endogenous in kidney and VEGF^KD podocytes)) (UniProt P35918); assay: co-IP; pooled mouse whole kidney lysates (1.5 mg) in IP buffer (1% Triton X-100, 1% Nonidet P-40, 0.5% Na deoxycholate, 150 mM NaCl, 10 mM Tris pH 7.5, 1 mM EDTA, 50 mM NaF); IP with VEGFR2 or beta3 integrin antibody overnight at 4°C, protein A-agarose; rabbit serum as negative control; western …

| Molecule | binding [1] | binding [2] | binding [3] | binding [4] |
| --- | --- | --- | --- | --- |
| VEGF receptor 2 (from UniProt P35918 20-1345) | binds | binds |  |  |
| neuropilin-1 (from UniProt P97333 22-923) (receptor) | binds | binds |  |  |
| B1 |  |  | binds | binds |
